The values that follow come from the supplement of paper PMC4749390.

Molecules are shown by their SMILES. Counter-ions that a name gives are not always drawn. Some of the results follow. Repeats in this data set agree poorly, so a single value says little.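 Wild-type human LRH-1, a heavily sumoylated nuclear receptor, is tetracycline-inducible in stable JEG3 cells. RT-qPCR measured SUMO-sensitive APOC3 and MUC1 transcripts, which rise with SUMO-less LRH-1 or UBC9 knockdown, versus TBP and DMSO controls. Robust Z-scores beyond ±2 flagged primary hits, followed by toxicity and TBP filtering.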

For this assay, the system named is JEG3 expressing hLRH-1. Put plainly: APOC3 transcript change (ddCt vs TBP and DMSO), Z-score over library; higher = higher APOC3 expression. The note with it: 10 µM; time (hr): 24.
For the molecule `Cc1onc(-c2ccccc2)c1C(=O)N[C@@H]1C(=O)N2[C@@H]1SC(C)(C)[C@@H]2C(=O)O` [oxacillin sodium], the “APOC3 transcript change (Z-score)” value is 0.104.

For `CCCC(CCC)C(=O)O` [Valproic acid sodium], the “APOC3 transcript change (Z-score)” value is -0.479.

As to `CCn1cc(C(=O)O)c(=O)c2cc(F)c(N3CCN(C)CC3)cc21` [pefloxacine mesylate], the “APOC3 transcript change (Z-score)” value was 0.542.

As to `CCN(CCCc1ccccc1)CCCc1ccccc1` [alverine citrate], the “APOC3 transcript change (Z-score)” value amounted to 0.665.

As to `CCCc1nc2c(C)cc(-c3nc4ccccc4n3C)cc2n1Cc1ccc(-c2ccccc2C(=O)O)cc1` [telmisartan], the “APOC3 transcript change (Z-score)” value amounted to 0.322.

As to `Clc1ccc(C(c2ccccc2Cl)C(Cl)Cl)cc1` (centres undefined) [mitotane], the “APOC3 transcript change (Z-score)” value worked out at 0.348.

For `CCCN(CCC)CCc1cccc2c1CC(=O)N2` [ropinirole hydrochloride], the “APOC3 transcript change (Z-score)” value is -0.101.

Consider `CCCNCC(O)COc1ccccc1C(=O)CCc1ccccc1` (centres undefined) [propafenone hydrochloride], for which the “APOC3 transcript change (Z-score)” value was found to be 0.439.

Take `O=C(O)c1ccccc1-c1c2cc(I)c(=O)c(I)c-2oc2c(I)c(O)c(I)cc12` [erythrosine sodium]: the “APOC3 transcript change (Z-score)” value is -1.05.

On to `CC(O)CC(C)(C)O` (centres undefined) [hexylene glycol], for which the “APOC3 transcript change (Z-score)” value is -0.353.

For the molecule `Cc1c(NC(=O)c2cccnc2)c(=O)n(-c2ccccc2)n1C` [nifenazone], the “APOC3 transcript change (Z-score)” value was 0.733.

`CCOC(=O)c1ccc(O)cc1` [ethyl paraben]: the “APOC3 transcript change (Z-score)” value is -0.26.

In the case of `C#CCN[C@@H]1CCc2ccccc21` [rasagiline], the “APOC3 transcript change (Z-score)” value came to 0.238.

Consider `CC1=C(CC(=O)O)c2cc(F)ccc2/C1=C\c1ccc(S(C)=O)cc1` (centres undefined) [Sulindac], for which the “APOC3 transcript change (Z-score)” value was -0.522.

For the molecule `Cc1c(N(C)C)c(=O)n(-c2ccccc2)n1C` [aminopyrine], the “APOC3 transcript change (Z-score)” value is 0.0105.

For the molecule `Clc1ccc(Cn2c(CN3CCCC3)nc3ccccc32)cc1` [clemizole hydrochloride], the “APOC3 transcript change (Z-score)” value was -0.271.

Regarding `CCN(CC)CCNC(=O)c1ccc(NC(C)=O)cc1` [N-Acetylprocainamide hydrochloride], the “APOC3 transcript change (Z-score)” value is -0.0623.

For `S=C=Nc1ccc(N=C=S)cc1` [bitoscanate], the “APOC3 transcript change (Z-score)” value amounted to 0.0434.

With `CC(C)(C)NCC(O)c1ccc(O)c(CO)c1` (centres undefined) [Albuterol hemisulfate], the “APOC3 transcript change (Z-score)” value was 0.214.

Take `C#C[C@]1(O)CCC2C3CCC4=CC(=O)CC[C@@H]4C3CC[C@@]21CC` (some centres undefined) [norgestrel]: the “APOC3 transcript change (Z-score)” value was 1.05.

Regarding `O=C(O)CCCCC1SCC2NC(=O)NC21` (centres undefined) [biotin], the “APOC3 transcript change (Z-score)” value was -0.303.

Take `CCN(CC)CCOC(=O)C(c1ccccc1)c1ccccc1` [adiphenine hydrochloride]: the “APOC3 transcript change (Z-score)” value was -0.368.

Consider `O=C(c1ccc(F)cc1)C1CCN(CCn2c(=O)[nH]c3ccccc3c2=O)CC1` [Ketanserin tartrate], for which the “APOC3 transcript change (Z-score)” value amounted to 0.575.

Take `Cc1nc(Nc2ncc(C(=O)Nc3c(C)cccc3Cl)s2)cc(N2CCN(CCO)CC2)n1` [dasatinib]: the “APOC3 transcript change (Z-score)” value amounted to 2.93.

For the molecule `CCCCCCc1ccc(O)cc1O.Nc1c2ccccc2nc2ccccc12` [acrisorcin], the “APOC3 transcript change (Z-score)” value stood at 9.63.

`COc1ccc(-c2ccc3cc(C(=O)O)ccc3c2)cc1C12CC3CC(CC(C3)C1)C2` [adapalene]: the “APOC3 transcript change (Z-score)” value worked out at 1.06.

For `O=S(=O)(O)CCSSCCS(=O)(=O)O` [dimesna], the “APOC3 transcript change (Z-score)” value came to 0.215.

As for `N[C@H](Cc1cc(I)c(Oc2ccc(O)c(I)c2)c(I)c1)C(=O)O` [liothyronine], the “APOC3 transcript change (Z-score)” value is -0.583.

In the case of `Cc1cc(NS(=O)(=O)c2ccc(N)cc2)no1` [sulfamethoxazole], the “APOC3 transcript change (Z-score)” value was -0.708.

In the case of `O=C1OCCN1/N=C/c1ccc([N+](=O)[O-])o1` [furazolidone], the “APOC3 transcript change (Z-score)” value was -0.866.

Regarding `CCCCOc1ccc(OCCCN2CCOCC2)cc1` [pramoxine hydrochloride], the “APOC3 transcript change (Z-score)” value was 1.61.

Take `C[C@@H]1CC(=O)NN=C1c1ccc(NN=C(C#N)C#N)cc1` [levosimendan]: the “APOC3 transcript change (Z-score)” value is -0.818.

Take `Cc1nnc(SCC2=C(C(=O)O)N3C(=O)[C@@H](NC(=O)Cn4cnnn4)[C@H]3SC2)s1` [cefazolin sodium]: the “APOC3 transcript change (Z-score)” value was -0.533.

For `Cc1ccc(C(=O)Nc2ccc(S(=O)(=O)O)c3cc(S(=O)(=O)O)cc(S(=O)(=O)O)c23)cc1NC(=O)c1cccc(NC(=O)Nc2cccc(C(=O)Nc3cc(C(=O)Nc4ccc(S(=O)(=O)O)c5cc(S(=O)(=O)O)cc(S(=O)(=O)O)c45)ccc3C)c2)c1` [Suramin hexasodium], the “APOC3 transcript change (Z-score)” value is -0.0546.

As for `CC(C)[C@H]1CC[C@H](C(=O)N[C@H](Cc2ccccc2)C(=O)O)CC1` [nateglinide], the “APOC3 transcript change (Z-score)” value was -0.0696.

For `CC1OC1P(=O)(O)O` (centres undefined) [fosphomycin], the “APOC3 transcript change (Z-score)” value is 0.182.

`NC[C@H]1CC[C@H](C(=O)O)CC1` [tranexamic acid]: the “APOC3 transcript change (Z-score)” value was 0.533.

Turning to `CO[C@H]1C[C@H](O[C@H]2[C@H](C)[C@@H](OC3O[C@H](C)C[C@H](N(C)C)[C@H]3O)[C@@H](C)C[C@]3(CO3)C(=O)[C@H](C)[C@@H](O)[C@@H](C)[C@@H](C)OC(=O)[C@@H]2C)O[C@@H](C)[C@@H]1O` (some centres undefined) [oleandomycin phosphate], the “APOC3 transcript change (Z-score)” value came to 0.797.

Turning to `CC1(C)S[C@@H]2[C@H](N3C(=O)[C@@H](c4ccccc4)NC3(C)C)C(=O)N2[C@H]1C(=O)O` [hetacillin potassium], the “APOC3 transcript change (Z-score)” value was -1.02.

With `CC(C)/N=c1\cc2n(-c3ccc(Cl)cc3)c3ccccc3nc-2cc1Nc1ccc(Cl)cc1` [clofazimine], the “APOC3 transcript change (Z-score)” value worked out at 0.215.

As for `Cc1nc(-c2ccc(OCC(C)C)c(C#N)c2)sc1C(=O)O` [febuxostat], the “APOC3 transcript change (Z-score)” value was -0.0582.

As to `CC1(O)CCC(C(C)(C)O)CC1` (centres undefined) [terpene hydrate], the “APOC3 transcript change (Z-score)” value turned out to be 0.00973.

Consider `NC(=O)c1cccnc1` [niacinamide], for which the “APOC3 transcript change (Z-score)” value is -1.23.

For `Nc1nccs1` [aminothiazole], the “APOC3 transcript change (Z-score)” value was 1.06.

Consider `C/N=C(/NC#N)NCCSCc1[nH]cnc1C` [Cimetidine], for which the “APOC3 transcript change (Z-score)” value is -0.144.

`Cc1ccc(C(=O)c2ccc(CC(=O)O)n2C)cc1` [tolmetin sodium]: the “APOC3 transcript change (Z-score)” value is -0.547.

On to `C[C@@H]1CC2C3C[C@H](F)C4=CC(=O)C=C[C@]4(C)[C@@]3(F)[C@@H](O)C[C@]2(C)[C@@]1(O)C(=O)COC(=O)C(C)(C)C` (some centres undefined) [flumethazone pivalate], for which the “APOC3 transcript change (Z-score)” value was found to be 0.386.

Turning to `CCCCCCCCCCCCCCCC[N+](C)(C)C` [cetrimonium bromide], the “APOC3 transcript change (Z-score)” value was -0.0801.

On to `N=C(N)NCCN1CCCCCCC1` [guanethidine sulfate], for which the “APOC3 transcript change (Z-score)” value turned out to be 0.306.

As to `CN(C)c1ccc(O)c2c1C[C@H]1C[C@H]3[C@H](N(C)C)C(=O)C(C(N)=O)=C(O)[C@@]3(O)C(=O)C1=C2O` [minocycline hydrochloride], the “APOC3 transcript change (Z-score)” value was -0.31.

As to `CC1=C(C(=O)O)N2C(=O)[C@@H](NC(=O)[C@H](N)c3ccc(O)cc3)[C@H]2SC1` [cefadroxil], the “APOC3 transcript change (Z-score)” value amounted to 1.64.

As to `COC(=O)C1=C(C)N=C(C)/C(=C(/O)OC)C1c1ccccc1[N+](=O)[O-]` (centres undefined) [Nifedipine], the “APOC3 transcript change (Z-score)” value is -0.971.

As to `C=C[C@H]1CN2CC[C@H]1C[C@@H]2[C@@H](O)c1ccnc2ccc(OC)cc12` [quinidine gluconate], the “APOC3 transcript change (Z-score)” value came out at 0.306.

For the molecule `CC1=C(/C=C/C(C)=C/C=C/C(C)=C/CO)C(C)(C)CCC1` [retinol], the “APOC3 transcript change (Z-score)” value came to 1.43.

As for `CCc1cc(C(N)=S)ccn1` [ethionamide], the “APOC3 transcript change (Z-score)” value was found to be 0.0359.

In the case of `CC(=O)CCCCn1c(=O)c2c(ncn2C)n(C)c1=O` [Pentoxifylline], the “APOC3 transcript change (Z-score)” value worked out at 0.026.

Regarding `NS(=O)(=O)c1cc2c(cc1Cl)NC(C(Cl)Cl)NS2(=O)=O` (centres undefined) [trichlormethiazide], the “APOC3 transcript change (Z-score)” value was -0.153.

As to `O=C(O)[C@H](O)[C@@H](O)[C@H](O)[C@H](O)CO` [sodium gluconate], the “APOC3 transcript change (Z-score)” value was -1.13.

Regarding `CC[C@]12CCCN3CCc4c(n(c5ccccc45)[C@@](O)(C(=O)OC)C1)[C@@H]32` [vincamine], the “APOC3 transcript change (Z-score)” value amounted to 0.0854.

In the case of `CC(=O)OCC1=C(C(=O)O)N2C(=O)[C@@H](NC(=O)CSc3ccncc3)[C@H]2SC1` [cephapirin sodium], the “APOC3 transcript change (Z-score)” value was determined as 1.45.

`CCC(C)(C)c1ccc(CC(C)CN2C[C@@H](C)O[C@@H](C)C2)cc1` (some centres undefined) [amorolfine hydrochloride]: the “APOC3 transcript change (Z-score)” value worked out at 0.193.

As for `O=C1Cc2cc(CCN3CCN(c4nsc5ccccc45)CC3)c(Cl)cc2N1` [ziprasidone mesylate], the “APOC3 transcript change (Z-score)” value stood at 1.1.

Turning to `O=C(CCCN1CCC(O)(c2ccc(Br)cc2)CC1)c1ccc(F)cc1` [bromperidol], the “APOC3 transcript change (Z-score)” value amounted to 0.633.

For the molecule `Cc1cn([C@H]2C=C[C@@H](CO)O2)c(=O)[nH]c1=O` [stavudine], the “APOC3 transcript change (Z-score)” value stood at 0.356.

As to `CCc1nn(CCCN2CCN(c3cccc(Cl)c3)CC2)c(=O)n1CCOc1ccccc1` [nefazodone hydrochloride], the “APOC3 transcript change (Z-score)” value is -0.326.

Take `Clc1ccccc1C(c1ccccc1)(c1ccccc1)n1ccnc1` [clotrimazole]: the “APOC3 transcript change (Z-score)” value is 0.448.

For the molecule `CC(=O)Oc1cc(C(C)C)c(OCCN(C)C)cc1C` [moxisylyte hydrochoride], the “APOC3 transcript change (Z-score)” value is -0.975.

On to `Nc1ccn(C2CSC(CO)O2)c(=O)n1` (centres undefined) [lamivudine], for which the “APOC3 transcript change (Z-score)” value is 4.21.

Take `CCCCOc1ccc(CC(=O)NO)cc1` [bufexamac]: the “APOC3 transcript change (Z-score)” value came to 1.16.

As to `COc1ccc2c(c1)c(CC(=O)O)c(C)n2C(=O)c1ccc(Cl)cc1` [Indomethacin], the “APOC3 transcript change (Z-score)” value was 0.0726.

`COc1ccnc(CS(=O)c2nc3cc(OC(F)F)ccc3[nH]2)c1OC` (centres undefined) [pantoprazole]: the “APOC3 transcript change (Z-score)” value is 1.1.

Regarding `COc1ccccc1OCC(O)COC(N)=O` (centres undefined) [methocarbamol], the “APOC3 transcript change (Z-score)” value was -0.165.

On to `CC1(C)O[C@@H]2[C@@H](CO[C@@]3(COS(N)(=O)=O)OC(C)(C)O[C@@H]23)O1` [topiramate], for which the “APOC3 transcript change (Z-score)” value was -0.499.

As for `C[N+](C)(C)CCOP(=O)([O-])OP(=O)(O)OC[C@H]1O[C@@H](n2ccc(N)nc2=O)[C@H](O)[C@@H]1O` [citicoline], the “APOC3 transcript change (Z-score)” value was found to be 0.201.

For the molecule `CC(C)CCC[C@@H](C)[C@H]1CC[C@H]2[C@@H]3CC=C4C[C@@H](O)CC[C@]4(C)[C@H]3CC[C@]12C` [cholesterol], the “APOC3 transcript change (Z-score)” value is 0.225.

On to `O=C(O)CCc1nc2ccccc2[nH]1` [procodazole], for which the “APOC3 transcript change (Z-score)” value is -0.315.

Turning to `CC(=O)OCC(=O)[C@@]1(O)CCC2C3CCC4=CC(=O)CC[C@]4(C)C3[C@@H](O)C[C@@]21C` (some centres undefined) [hydrocortisone acetate], the “APOC3 transcript change (Z-score)” value is -0.0625.

Turning to `CCN(CC)C(=O)N1CCN(C)CC1` [diethylcarbamazine citrate], the “APOC3 transcript change (Z-score)” value was -0.411.

On to `Nc1ccc(N=Nc2ccccc2)c(N)n1` [phenazopyridine hydrochloride], for which the “APOC3 transcript change (Z-score)” value turned out to be 0.775.
